PubChem BioAssay AID602196, INSERM | 2012
Purpose: 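Knock-downs that protect lung cancer cells from cisplatin or sensitise them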. Cells: human A549 lung cancer cells. Reagent: siRNA pair against human genes. Timing: 48 h transfection before cisplatin; time from cisplatin to read-out not stated. Conditions: cisplatin at a dose killing half of control-siRNA cells; exact dose and duration not given. Measured: 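Shift in cisplatin death relative to control siRNA, from -50 (all cells die) to +50 (no cells die); siRNAs harmful on their own scored 0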. Direction: two-siRNA summed score (-2 to +2): higher = both siRNAs protect from cisplatin killing; -2 means both sensitise; mean protection from cisplatin (shift in death): higher = protection from cisplatin killing. Rule for the call: 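Each siRNA scores 0 if harmful alone by LDH or WST-1, otherwise +1 if it reduces and -1 if it increases cisplatin killing; a gene is active when both siRNAs agree (sum +2 or -2)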. Calls: active = both siRNAs shift cisplatin killing the same way; inactive = no consistent shift, or siRNA harmful alone.
In all, the deposit lists about 23,000 reagents; this is a part drawn at random. 455 of them (2%) were called active. 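Active includes both protection and sensitisation; some change values fall well beyond the stated -50 to +50 range.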 The numbers tell different reagents against one gene apart. Not all columns of the deposit are shown. Not stated in the record: the amount of reagent.

gene,reagent no.,two-siRNA summed score (-2 to +2),mean protection from cisplatin (shift in death) (%),Outcome
LOC402148,1,1,7.1,inactive
TCF12,1,0,-9.2,inactive
ANGPTL8,1,0,-6.8,inactive
EHMT1,1,1,15.3,inactive
SH3RF3,1,-1,-20.1,inactive
LOC441147,1,0,6.7,inactive
SHCBP1,1,0,4.1,inactive
LRAT,1,0,-0.8,inactive
SPTLC2,1,1,10.4,inactive
MRE11,1,0,13.4,inactive
KALRN,1,0,-16.5,inactive
KALRN,2,1,14.3,inactive
TMED8,1,1,7.7,inactive
ATR,1,0,-1.4,inactive
TXNL1,1,-1,-1.7,inactive
SDR9C7,1,2,19.1,active
CRLS1,1,0,-0.6,inactive
SPAG1,1,0,6.2,inactive
SEMA3G,1,0,1.1,inactive
PLD3,1,-1,-21.1,inactive
NOP58,1,0,-9.5,inactive
PTPRJ,1,0,4.6,inactive

Reagents listed so far marked active, once more:
gene,reagent no.,two-siRNA summed score (-2 to +2),mean protection from cisplatin (shift in death) (%),Outcome
SDR9C7,1,2,19.1,active

Further reagents:
gene,reagent no.,two-siRNA summed score (-2 to +2),mean protection from cisplatin (shift in death) (%),Outcome
OR2L3,1,0,4.5,inactive
ATP5F1C,1,0,6,inactive
JAG1,1,0,-8,inactive
DDI1,1,1,10.6,inactive
SLC5A6,1,0,3.5,inactive
RAB4A,1,1,13.1,inactive
SAA4,1,0,8.6,inactive
GPR84,1,-1,-12,inactive
LTN1,1,0,15.6,inactive
RASGRP4,1,0,-4.7,inactive
ESAM,1,0,37.8,inactive
VPS25,1,0,1,inactive
IL20RB,1,0,3.2,inactive
GGT5,1,-1,-5.5,inactive
WWP1,1,0,5.5,inactive
LY6G6F,1,0,3.4,inactive
LOC400832,1,1,3.7,inactive
ZIC3,1,0,-9.2,inactive
SLC35D3,1,0,6.2,inactive
EXOC2,1,0,-1.6,inactive
PDLIM3,1,0,4.5,inactive
LOC346171,1,1,1.1,inactive
LOC387898,1,0,3.9,inactive
KNCN,1,0,-0.6,inactive
DYNLRB2,1,0,-0.7,inactive
SPINDOC,1,0,5.4,inactive
DNAJC28,1,0,-9.3,inactive
EPS8L3,1,0,-7.4,inactive
KIF18A,1,0,8.6,inactive
TBX3,1,-1,-3.7,inactive
CMYA5,1,1,22.2,inactive
S100A9,1,0,-7.1,inactive
MMD2,1,0,5,inactive
OSCAR,1,0,-5,inactive
NSMAF,1,-2,-25.4,active
